Reference: patent US20250283871A1, “COMPOSITIONS AND METHODS FOR MODULATING THE INTERACTION BETWEEN SS18-SSX FUSION ONCOPROTEIN AND NUCLEOSOMES” (Dana-Farber Cancer Institute, Inc., priority 2020, published 2025)

B1: DYM (protein, UniProt Q7RTS9 2-669, looked up)
Dymeclin: GSNSSRIGDLPKNEYLKKLSGTESISENDPFWNQLLSFSFPAPTSSSELKLLEEATISVCRSLVENNPRTGNLGALIKVFLSRTKELKLSAECQNHIFIWQTHNALFIICCLLKVFICQMSEEELQLHFTYEEKSPGNYSSDSEDLLEELLCCLMQLITDIPLLDITYEISVEAISTMVVFLSCQLFHKEVLRQSISHKYLMRGPCLPYTSKLVKTLLYNFIRQEKPPPPGAHVFPQQSDGGGLLYGLASGVATGLWTVFTLGGVGSKAAASPELSSPLANQSLLLLLVLANLTDASDAPNPYRQAIMSFKNTQDSSPFPSSIPHAFQINFNSLYTALCEQQTSDQATLLLYTLLHQNSNIRTYMLARTDMENLVLPILEILYHVEERNSHHVYMALIILLILTEDDGFNRSIHEVILKNITWYSERVLTEISLGSLLILVVIRTIQYNMTRTRDKYLHTNCLAALANMSAQFRSLHQYAAQRIISLFSLLSKKHNKVLEQATQSLRGSLSSNDVPLPDYAQDLNVIEEVIRMMLEIINSCLTNSLHHNPNLVYALLYKRDLFEQFRTHPSFQDIMQNIDLVISFFSSRLLQAGAELSVERVLEIIKQGVVALPKDRLKKFPELKFKYVEEEQPEEFFIPYVWSLVYNSAVGLYWNPQDIQLFTMDSD
B2: MPV17 (protein, UniProt P39210 1-176, looked up)
Mitochondrial inner membrane …: MALWRAYQRALAAHPWKVQVLTAGSLMGLGDIISQQLVERRGLQEHQRGRTLTMVSLGCGFVGPVVGGWYKVLDRFIPGTTKVDALKKMLLDQGGFAPCFLGCFLPLVGALNGLSAQDNWAKLQRDYPDALITNYYLWPAVQLANFYLVPLHYRLAVVQCVAVIWNSYLSWKAHRL
B3: DNAJB12 (protein, UniProt Q9NXW2 1-375, looked up)
DnaJ homolog subfamily B …: MESNKDEAERCISIALKAIQSNQPDRALRFLEKAQRLYPTPRVRALIESLNQKPQTAGDQPPPTDTTHATHRKAGGTDAPSANGEAGGESTKGYTAEQVAAVKRVKQCKDYYEILGVSRGASDEDLKKAYRRLALKFHPDKNHAPGATEAFKAIGTAYAVLSNPEKRKQYDQFGDDKSQAARHGHGHGDFHRGFEADISPEDLFNMFFGGGFPSSNVHVYSNGRMRYTYQQRQDRRDNQGDGGLGVFVQLMPILILILVSALSQLMVSSPPYSLSPRPSVGHIHRRVTDHLGVVYYVGDTFSEEYTGSSLKTVERNVEDDYIANLRNNCWKEKQQKEGLLYRARYFGDTDMYHRAQKMGTPSCSRLSEVQASLHG
B4: MTX2 (protein, UniProt O75431 2-263, looked up)
Metaxin-2: SLVAEAFVSQIAAAEPWPENATLYQQLKGEQILLSDNAASLAVQAFLQMCNLPIKVVCRANAEYMSPSGKVPFIHVGNQVVSELGPIVQFVKAKGHSLSDGLEEVQKAEMKAYMELVNNMLLTAELYLQWCDEATVGEITHARYGSPYPWPLNHILAYQKQWEVKRKMKAIGWGKKTLDQVLEDVDQCCQALSQRLGTQPYFFNKQPTELDALVFGHLYTILTTQLTNDELSEKVKNYSNLLAFCRRIEQHYFEDRGKGRLS
B5: MCU (protein, UniProt Q8NE86 51-351, looked up)
Calcium uniporter protein, …: VHQRIASWQNLGAVYCSTVVPSDDVTVVYQNGLPVISVRLPSRRERCQFTLKPISDSVGVFLRQLQEEDRGIDRVAIYSPDGVRVAASTGIDLLLLDDFKLVINDLTYHVRPPKRDLLSHENAATLNDVKTLVQQLYTTLCIEQHQLNKERELIERLEDLKEQLAPLEKVRIEISRKAEKRTTLVLWGGLAYMATQFGILARLTWWEYSWDIMEPVTYFITYGSAMAMYAYFVMTRQEYVYPEARDRQYLLFFHKGAKKSRFDLEKYNQLKDAIAQAEMDLKRLRDPLQVHLPLRQIGEKD
B6: HS2ST1 (protein, UniProt Q7LGA3 1-356, looked up)
Heparan sulfate …: MGLLRIMMPPKLQLLAVVAFAVAMLFLENQIQKLEESRSKLERAIARHEVREIEQRHTMDGPRQDATLDEEEDMVIIYNRVPKTASTSFTNIAYDLCAKNKYHVLHINTTKNNPVMSLQDQVRFVKNITSWKEMKPGFYHGHVSYLDFAKFGVKKKPIYINVIRDPIERLVSYYYFLRFGDDYRPGLRRRKQGDKKTFDECVAEGGSDCAPEKLWLQIPFFCGHSSECWNVGSRWAMDQAKYNLINEYFLVGVTEELEDFIMLLEAALPRFFRGATELYRTGKKSHLRKTTEKKLPTKQTIAKLQQSDIWKMENEFYEFALEQFQFIRAHAVREKDGDLYILAQNFFYEKIYPKSN
B7: MTPAP (protein, UniProt Q9NVV4 38-582, looked up)
Poly(A) RNA polymerase, …: KDLRRDEQPSGSVETGFEDKIPKRRFSEMQNERREQAQRTVLIHCPEKISENKFLKYLSQFGPINNHFFYESFGLYAVVEFCQKESIGSLQNGTHTPSTAMETAIPFRSRFFNLKLKNQTSERSRVRSSNQLPRSNKQLFELLCYAESIDDQLNTLLKEFQLTEENTKLRYLTCSLIEDMAAAYFPDCIVRPFGSSVNTFGKLGCDLDMFLDLDETRNLSAHKISGNFLMEFQVKNVPSERIATQKILSVLGECLDHFGPGCVGVQKILNARCPLVRFSHQASGFQCDLTTNNRIALTSSELLYIYGALDSRVRALVFSVRCWARAHSLTSSIPGAWITNFSLTMMVIFFLQRRSPPILPTLDSLKTLADAEDKCVIEGNNCTFVRDLSRIKPSQNTETLELLLKEFFEYFGNFAFDKNSINIRQGREQNKPDSSPLYIQNPFETSLNISKNVSQSQLQKFVDLARESAWILQQEDTDRPSISSNRPWGLVSLLLPSAPNRKSFTKKKSNKFAIETVKNLLESLKGNRTENFTKTSGKRTISTQT
B8: GPR89B (protein, UniProt P0CG08 1-455, looked up)
Golgi pH regulator B: MSFLIDSSIMITSQILFFGFGWLFFMRQLFKDYEIRQYVVQVIFSVTFAFSCTMFELIIFEILGVLNSSSRYFHWKMNLCVILLILVFMVPFYIGYFIVSNIRLLHKQRLLFSCLLWLTFMYFFWKLGDPFPILSPKHGILSIEQLISRVGVIGVTLMALLSGFGAVNCPYTYMSYFLRNVTDTDILALERRLLQTMDMIISKKKRMAMARRTMFQKGEVHNKPSGFWGMIKSVTTSASGSENLTLIQQEVDALEELSRQLFLETADLYATKERIEYSKTFKGKYFNFLGYFFSIYCVWKIFMATINIVFDRVGKTDPVTRGIEITVNYLGIQFDVKFWSQHISFILVGIIIVTSIRGLLITLTKFFYAISSSKSSNVIVLLLAQIMGMYFVSSVLLIRMSMPLEYRTIITEVLGELQFNFYHRWFDVIFLVSALSSILFLYLAHKQAPEKQMAP
B9: MIGA1 (protein, UniProt Q8NAN2 1-632, looked up)
Mitoguardin 1: MSDCCSAPGISWEAGVGRPAVPGLELQIRRGAMSEETVSESQFSLKTAALRVFDLPLTWYYSLSQIKFSPVAKKLFVVTAVSAISVIFLAHHFKRKRGKKKGKILPWEPEHLILEYTKRAASDKGSSCSSSRQNLTLSLSSTKDKGSQVCNYANGGLFSKYSGSAQSLASVQSVNSCHSCACGNSNSWDKADEDDIKLVNIPVTTPENLYLMGMELFEEALRRWEQALTFRNRQAEDEACGSIKLGAGDAIAEENVDDIISTEFIHKLEALLQRAYRLQEEFEATLGASDPNSLADDIDKDTDITMKGNVEDFGLRDTLSIASTDSFASAAELAEHREVRHTYSLESLCHCPFYEEAMHLVEEGKIYSRVLRTEMLECLGDSDFLAKLHCIRQAFQVILSESANRIFLAESGRKILSALIVKARKNPKKFEDVFDEMIYFLEQTDHWGSTEMELAARGVKNLNFYDVVLDFILMDSFEDLENPPTSIQNVVNNRWLNSSFKETAVASSCWSVLKQKRQQMKIPDGFFAHFYAICEHISPVLAWGFLGPRNSLYDLCCFFKNQVLLFLKDIFDFEKVRYSSTETLAEDLMQLLIRRTELLMAYLEADALRHTSSCLSSHGHVMSTGLLEAKVQ
B10: PMPCB (protein, UniProt O75439 44-489, looked up)
Mitochondrial-processing …: STQAATQVVLNVPETRVTCLESGLRVASEDSGLSTCTVGLWIDAGSRYENEKNNGTAHFLEHMAFKGTKKRSQLDLELEIENMGAHLNAYTSREQTVYYAKAFSKDLPRAVEILADIIQNSTLGEAEIERERGVILREMQEVETNLQEVVFDYLHATAYQNTALGRTILGPTENIKSISRKDLVDYITTHYKGPRIVLAAAGGVSHDELLDLAKFHFGDSLCTHKGEIPALPPCKFTGSEIRVRDDKMPLAHLAIAVEAVGWAHPDTICLMVANTLIGNWDRSFGGGMNLSSKLAQLTCHGNLCHSFQSFNTSYTDTGLWGLYMVCESSTVADMLHVVQKEWMRLCTSVTESEVARARNLLKTNMLLQLDGSTPICEDIGRQMLCYNRRIPIPELEARIDAVNAETIREVCTKYIYNRSPAIAAVGPIKQLPDFKQIRSNMCWLRD
B11: DNAJC16 (protein, UniProt Q9Y2G8 26-782, looked up)
DnaJ homolog subfamily C …: LDFDPYRVLGVSRTASQADIKKAYKKLAREWHPDKNKDPGAEDKFIQISKAYEILSNEEKRSNYDQYGDAGENQGYQKQQQQREYRFRHFHENFYFDESFFHFPFNSERRDSIDEKYLLHFSHYVNEVVPDSFKKPYLIKITSDWCFSCIHIEPVWKEVIQELEELGVGIGVVHAGYERRLAHHLGAHSTPSILGIINGKISFFHNAVVRENLRQFVESLLPGNLVEKVTNKNYVRFLSGWQQENKPHVLLFDQTPIVPLLYKLTAFAYKDYLSFGYVYVGLRGTEEMTRRYNINIYAPTLLVFKEHINRPADVIQARGMKKQIIDDFITRNKYLLAARLTSQKLFHELCPVKRSHRQRKYCVVLLTAETTKLSKPFEAFLSFALANTQDTVRFVHVYSNRQQEFADTLLPDSEAFQGKSAVSILERRNTAGRVVYKTLEDPWIGSESDKFILLGYLDQLRKDPALLSSEAVLPDLTDELAPVFLLRWFYSASDYISDCWDSIFHNNWREMMPLLSLIFSALFILFGTVIVQAFSDSNDERESSPPEKEEAQEKTGKTEPSFTKENSSKIPKKGFVEVTELTDVTYTSNLVRLRPGHMNVVLILSNSTKTSLLQKFALEVYTFTGSSCLHFSFLSLDKHREWLEYLLEFAQDAAPIPNQYDKHFMERDYTGYVLALNGHKKYFCLFKPQKTVEEEEAIGSCSDVDSSLYLGESRGKPSCGLGSRPIKGKLSKLSLWMERLLEGSLQRFYIPSWPELD
B12: ERGIC2 (protein, UniProt Q96RQ1 1-377, looked up)
Endoplasmic reticulum-Golgi …: MRRLNRKKTLSLVKELDAFPKVPESYVETSASGGTVSLIAFTTMALLTIMEFSVYQDTWMKYEYEVDKDFSSKLRINIDITVAMKCQYVGADVLDLAETMVASADGLVYEPTVFDLSPQQKEWQRMLQLIQSRLQEEHSLQDVIFKSAFKSTSTALPPREDDSSQSPNACRIHGHLYVNKVAGNFHITVGKAIPHPRGHAHLAALVNHESYNFSHRIDHLSFGELVPAIINPLDGTEKIAIDHNQMFQYFITVVPTKLHTYKISADTHQFSVTERERIINHAAGSHGVSGIFMKYDLSSLMVTVTEEHMPFWQFFVRLCGIVGGIFSTTGMLHGIGKFIVEIICCRFRLGSYKPVNSVPFEDGHTDNHLPLLENNTH

These molecules were tested on BAF complex subunits and histone proteins (assay: Mass spectrometry proteomics of purified HA-SS18 WT and HA-SS18-SSX1 complexes (Tables 5A-5E)). Details: HA-SS18WT_NE_peptides: proteins co-purified with HA-SS18 WT from nuclear extract (NE), HEK-293T.
Parameters: species or system human

Molecule	Total (peptides)	Unique (peptides)
B1	2	1
B2	1	1
B3	1	1
B4	1	1
B5	1	1
B6	1	1
B7	1	1
B8	1	1
B9	1	1
B10	1	1
B11	1	1
B12	1	1
